The assay addresses RNase E (603-850) (E. coli) (UniProt P21513). The assay can be described thus: co-purification; recognition core expressed and purified by the protocols of Bruce et al. (2018); not described here.

By UniProt entry, the sequences of proteins in these tests, tags left out. Residues count along the entry.
UniProt P21513, residues 603-850: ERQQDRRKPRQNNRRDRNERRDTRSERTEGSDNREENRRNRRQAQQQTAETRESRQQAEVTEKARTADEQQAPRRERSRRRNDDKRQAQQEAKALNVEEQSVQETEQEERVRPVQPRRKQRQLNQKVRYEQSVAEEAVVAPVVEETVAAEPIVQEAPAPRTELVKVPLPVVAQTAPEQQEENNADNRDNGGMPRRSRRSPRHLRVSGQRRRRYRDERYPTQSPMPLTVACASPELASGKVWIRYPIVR
UniProt P0A6P9: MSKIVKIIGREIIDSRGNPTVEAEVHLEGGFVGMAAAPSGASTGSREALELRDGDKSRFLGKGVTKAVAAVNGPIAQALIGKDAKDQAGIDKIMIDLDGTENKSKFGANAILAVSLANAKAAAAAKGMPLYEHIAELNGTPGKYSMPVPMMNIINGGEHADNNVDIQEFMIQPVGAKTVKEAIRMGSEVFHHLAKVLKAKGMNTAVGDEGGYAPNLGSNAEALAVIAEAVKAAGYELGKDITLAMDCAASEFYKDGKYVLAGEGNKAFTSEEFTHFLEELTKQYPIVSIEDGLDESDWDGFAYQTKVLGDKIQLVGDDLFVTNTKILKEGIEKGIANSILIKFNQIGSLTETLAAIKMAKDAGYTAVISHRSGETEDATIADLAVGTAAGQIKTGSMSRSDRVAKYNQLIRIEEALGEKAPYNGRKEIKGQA

No constants are given. Whether binding was seen depends on the method and setting. Some results given as binding are weak or reduced against the parent protein; the word gives no strength.

On to “Enolase (from UniProt P0A6P9 1-432) (enzyme)”, for which the binding entry is “binds”.

For the origin of these results see PMC7613265.
